From the supplement of paper PMC8166895
Structures can show the parent of a compound that is named as a salt. Some of the results follow. Most entries show no effect beyond the scatter of the controls.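 Melting temperature was read by differential scanning fluorimetry in a single-replicate pilot screen of a library of approved drugs and clinical or known-target compounds. Compounds raising the melting point by at least 2 °C were the top stabilizing hits, and negative shifts mean destabilization.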

Test system: SARS-CoV-2 main protease (Mpro, nsp5)
Assay: thermal shift ΔTm of Mpro relative to plate average Tm; higher = stronger thermal stabilization of Mpro (binding)
Conditions: 10 µM; protein concentration 1 µM

| SMILES | thermal shift ΔTm of Mpro |
| --- | --- |
| COc1cc(C(=O)NC2CCCNC2)cc(OC)c1OC (stereo not given) [Troxipide] | -0.0601 °C |
| C[C@]12CC[C@@H]3c4ccc(O)cc4CC[C@H]3[C@@H]1CCC2=O [Estrone] | 0.0151 °C |
| Cc1cc(-n2cccc2)c(S(C)(=O)=O)cc1C(=O)N=C(N)N [Eniporide] | 0.352 °C |
| Nc1ncnc2c1c(-c1cccc(OCc3ccccc3)c1)cn2C1CC(CN2CCC2)C1 (stereo not given) | -0.183 °C |
| CCCCCCCCc1ccc(CCC(N)(CO)CO)cc1 [Fingolimod (FTY720) HCl] | -0.229 °C |
| CC(C)(O)c1cn(-c2ccc(-c3cccc(S(C)(=O)=O)c3)cc2)c(C(C)(C)c2ccccc2Cl)n1 | -0.0917 °C |
| CCN(CC)CCOc1ccc(Nc2nc(-c3ccccc3NC(=O)CCN3CCN(C)CC3)nc3ccccc23)cc1 | -0.207 °C |
| Cc1ccc(NC(=O)Nc2nnc(Sc3ncnc4cc(OCCCN5CCOCC5)ccc34)s2)cc1 | 0.267 °C |
| COc1cnc(NS(=O)(=O)c2ccc(N)cc2)nc1 [Sulfameter] | 0.0346 °C |
| O=C(O)CCn1c2c(c3ccccc31)C[C@H](NS(=O)(=O)c1ccc(F)cc1)CC2 [Ramatroban] | 0.0185 °C |
| Cc1c[nH]c2nc(Nc3ccc(N4CCN(C)CC4)c(F)c3)nc(-c3cccc(CC#N)c3)c12 | 0.266 °C |
| CS(=O)(=O)Nc1ccc(C(=O)NCc2ccc(Cl)cc2Cl)cc1 | -0.131 °C |
| O=C(O)CCC(=O)Nc1ccc(S(=O)(=O)Nc2nccs2)cc1 [Succinylsulfathiazole] | 0.169 °C |
| O=S(=O)(Nc1ccccc1)c1ccc(NC(=S)Nc2ccccc2)cc1 | 0.183 °C |
| O=C(O)c1cc([O-])c([O-])c(O)c1.[Bi+3].[OH-] | 0.305 °C |
| CCOC(OCC)P(=O)(O)CCCNCc1ccc(Cl)c(Cl)c1 | -0.0567 °C |
| Cc1cccc(CN2CCN(C(c3ccccc3)c3ccc(Cl)cc3)CC2)c1 (stereo not given) [Meclizine dihydrochloride] | 0.276 °C |
| OC1CCC(Oc2cccc3cnc(Nc4ccc5nc[nH]c5c4)nc23)CC1 (stereo not given) | -0.0175 °C |
| COc1cc(CCC(C)=O)ccc1O [Vanillylacetone] | -0.0558 °C |
| O=NN(CCCl)C(=O)NC1CCCCC1 [Lomustine] | 0.217 °C |
| CC1CN(S(=O)(=O)c2cccc3cnccc23)CCN1 (stereo not given) [Iso-H7 dihydrochloride] | -0.043 °C |
| CC(C)c1cc(C(=O)N2Cc3ccc(CN4CCN(C)CC4)cc3C2)c(O)cc1O | -0.117 °C |
| COc1cc(Nc2ncc(F)c(Nc3ccc4c(n3)N(COP(=O)(O)O)C(=O)C(C)(C)O4)n2)cc(OC)c1OC [Fostamatinib (R788)] | 0.04 °C |
| COc1cc(Nc2ncc(F)c(Nc3ccc4c(n3)N(COP(=O)(O)O)C(=O)C(C)(C)O4)n2)cc(OC)c1OC [R788 Disodium] | -0.0133 °C |
| CCOc1ccc(-c2nc(-c3cccc4c3CCC4NCCO)no2)cc1OCC (stereo not given) | 0.0161 °C |
| CC1(C)S[C@@H]2[C@H](NC(=O)[C@H](NC(=O)N3CCN(S(C)(=O)=O)C3=O)c3ccccc3)C(=O)N2[C@H]1C(=O)O [Mezlocillin Sodium] | -0.0386 °C |
| Cn1c(=O)cc(N2CCC[C@@H](N)C2)n(Cc2ccccc2C#N)c1=O [Alogliptin] | -0.107 °C |

| SMILES | thermal shift ΔTm of Mpro |
| --- | --- |
| Cn1c(=O)cc(N2CCC[C@@H](N)C2)n(Cc2ccccc2C#N)c1=O [Alogliptin Benzoate] | 0.169 °C |
| CCCCCCCN(CC)CCCC(O)c1ccc(NS(C)(=O)=O)cc1 (stereo not given) [Ibutilide Fumarate] | 0.175 °C |
| Cc1nnc(C(C)C)n1C1C[C@H]2CC[C@@H](C1)N2CC[C@H](NC(=O)C1CCC(F)(F)CC1)c1ccccc1 (stereo in doubt) [Maraviroc] | 0.155 °C |
| c1ccc2[nH]c(-c3cscn3)nc2c1 [Thiabendazole] | -0.103 °C |
| Cn1cc(-c2ccc3nnc(C(F)(F)c4ccc5ncccc5c4)n3n2)cn1 | -0.15 °C |
| OC[C@@H](O)[C@@H](O[C@@H]1O[C@H](CO)[C@H](O)[C@H](O)[C@H]1O)[C@H](O)[C@@H](O)CO [Lactitol monohydrate] | 0.163 °C |
| CCC(CC)CC1(C(=O)Nc2ccccc2SC(=O)C(C)C)CCCCC1 | -0.102 °C |
| CN1[C@@H](CC(=O)c2ccccc2)CCC[C@H]1C[C@H](O)c1ccccc1 [Lobeline hydrochloride] | 0.343 °C |
| COc1ccc(CNC(=O)c2cc(-c3cncc(C)c3)ncc2-c2nccs2)nc1OC | -0.0298 °C |
| COC(=O)c1cc(OC)c2c(c1-c1c(CO)cc(OC)c3c1OCO3)OCO2 [Bicyclol] | 0.0041 °C |
| CNC(=O)Nc1ccc(-c2nc(N3CC4CCC(C3)O4)c3cnn(C4CCC5(CC4)OCCO5)c3n2)cc1 | -0.00586 °C |
| COC1=C2C[C@@H](C)C[C@H](OC)[C@H](O)[C@@H](C)/C=C(\C)[C@H](OC(N)=O)[C@@H](OC)/C=C\C=C(/C)C(=O)NC(=CC1=O)C2=O [Geldanamycin] | -0.209 °C |
| CCCCNc1ncc2c(-c3ccc(CN4CCN(C)CC4)cc3)cn([C@H]3CC[C@H](O)CC3)c2n1 | 0.0312 °C |
| CN1CC2c3ccccc3Oc3ccc(Cl)cc3C2C1 (stereo not given) [Asenapine] | 0.138 °C |
| CN1CC2c3ccccc3Oc3ccc(Cl)cc3C2C1 (stereo not given) [Asenapine Maleate] | -0.0393 °C |
| Oc1cc(CN2CCOCC2)c(O)cc1CN1CCOCC1 | -0.0562 °C |
| CCOC(=O)[C@H](CCc1ccccc1)N[C@@H](C)C(=O)N1CCC[C@H]1C(=O)O [Enalapril Maleate] | 0.0813 °C |
| CNC(=O)Oc1ccccc1OC(C)C [Propoxur] | -0.0409 °C |
| CNC(=O)[C@H](Cc1ccccc1)NC(=O)[C@H](CC(C)C)[C@H](CSc1cccs1)C(=O)NO [Batimastat (BB-94)] | 0.0709 °C |
| COc1cc2ncnc(Nc3ccc(O)cc3)c2cc1OC | 0.0906 °C |
| O=C(O)c1cn(C2CC2)c2cc(Cl)c(F)cc2c1=O [Ciprofloxacin EP IMpurity A] | 0.0953 °C |
| O=C(O)c1ccccc1C(=O)Nc1ccc(-c2ccccc2)cc1 [Kartogenin] | -0.211 °C |
| O=C(NC(O)C(Cl)(Cl)Cl)NC(O)C(Cl)(Cl)Cl (stereo not given) | 0.241 °C |
| C=CC(=O)N1CCC[C@@H](n2nc(-c3ccc(Oc4ccccc4)cc3)c3c(N)ncnc32)C1 | -0.29 °C |
| CC(=O)N1CCN(CCOc2ccc(C3CCN(C4=Nn5c(nnc5C(F)(F)F)CC4)CC3)cc2)CC1 | 0.0991 °C |
| O=C1N=C(N2CCOCC2)CN1c1ccc(Cl)cc1 | 0.192 °C |
| C=CC(=O)Nc1ccc2ncnc(Nc3ccc(OCc4cccc(F)c4)c(Cl)c3)c2c1 | 0.455 °C |

| SMILES | thermal shift ΔTm of Mpro |
| --- | --- |
| CC(=O)NC1CCSC1=O (stereo not given) [Citiolone] | 0.129 °C |
| CC1=C(CC(=O)O)c2cc(F)ccc2/C1=C\c1ccc([S+](C)[O-])cc1 (stereo not given) [Sulindac] | 0.0185 °C |
| C[C@]12CC[C@@H]3c4ccc(O)cc4CC[C@H]3[C@@H]1C[C@@H](O)[C@@H]2O [Estriol] | -0.00864 °C |
| Cc1nc(N)sc1-c1ccnc(Nc2ccc(N3CCOCC3)cc2)n1 | 0.0788 °C |
| CCCCC(=O)O[C@]1(C(=O)CO)CC[C@H]2[C@@H]3CCC4=CC(=O)CC[C@]4(C)[C@H]3[C@@H](O)C[C@@]21C [Hydrocortisone Valerate] | -0.232 °C |
| Cc1noc(NS(=O)(=O)c2ccc(N)cc2)c1C [Sulfisoxazole] | 0.0557 °C |
| CCc1cccc2c3c([nH]c12)C(CC)(CC(=O)O)OCC3 (stereo not given) [Etodolac] | 0.345 °C |
| CCC[C@H](NC(=O)[C@@H]1[C@H]2CCC[C@H]2CN1C(=O)[C@@H](NC(=O)[C@@H](NC(=O)c1cnccn1)C1CCCCC1)C(C)(C)C)C(=O)C(=O)NC1CC1 [Telaprevir (VX-950)] | 0.257 °C |
| C[C@@H]1CN(CC(=O)Nc2ccc3c(c2)Cc2cccc(-c4cc(=O)cc(N5CCOCC5)o4)c2S3)C[C@H](C)O1 | -0.25 °C |
| CSc1ccc(C(=O)/C=C/c2cc(C)c(OC(C)(C)C(=O)O)c(C)c2)cc1 [Elafibranor] | -0.133 °C |
| O=C1CC(c2c[nH]c3ccc(F)cc23)C(=O)N1 (stereo not given) | 0.0304 °C |
| C/C(=N\NC(=O)c1cccc(S(=O)(=O)N2CCOCC2)c1)c1cc(Cl)ccc1O | 0.039 °C |
| O=C(NS(=O)(=O)c1ccc(Br)s1)c1ccc(Cl)cc1Cl [Tasisulam] | 0.138 °C |
| OCCOCCN1CCN(C(c2ccccc2)c2ccc(Cl)cc2)CC1 (stereo not given) [Hydroxyzine Pamoate] | 0.263 °C |
| OCCOCCN1CCN(C(c2ccccc2)c2ccc(Cl)cc2)CC1 (stereo not given) [Hydroxyzine 2HCl] | 0.0609 °C |
| Cc1cc(CCCOc2c(C)cc(-c3noc(C(F)(F)F)n3)cc2C)on1 [Pleconaril] | 0.0715 °C |
| Cn1c2ccccc2c2c3c(c4c5ccccc5n(CCC#N)c4c21)CNC3=O | -0.0614 °C |
| CN(C)[C@@H]1C(=O)C(C(N)=O)=C(O)[C@@]2(O)C(=O)C3=C(O)c4c(O)cccc4[C@@](C)(O)[C@H]3[C@H](O)[C@@H]12 [Oxytetracycline Dihydrate] | -0.0606 °C |
| CN(C)[C@@H]1C(=O)C(C(N)=O)=C(O)[C@@]2(O)C(=O)C3=C(O)c4c(O)cccc4[C@@](C)(O)[C@H]3[C@H](O)[C@@H]12 [Oxytetracycline (Terramycin)] | 0.0893 °C |
| COc1ccc(CNC(=O)Nc2ncc([N+](=O)[O-])s2)cc1 | 0.153 °C |
| C=CC1=C(C(=O)O)N2C(=O)[C@@H](NC(=O)/C(=N\OCC(=O)O)c3csc(N)n3)[C@H]2SC1 [Cefixime] | 0.0337 °C |
| CN1C(=O)CCS(=O)(=O)C1c1ccc(Cl)cc1 (stereo not given) [Chlormezanone] | 0.126 °C |
| Cc1cc(-n2c(=O)[nH]c(=O)n(C)c2=O)ccc1Oc1ccc(SC(F)(F)F)cc1 [Toltrazuril] | 0.067 °C |
| O=C(O)Cc1ccc(O)c([N+](=O)[O-])c1 [4-Hydroxy-3-nitrophenylacetic acid] | 0.0408 °C |
| Cc1ccccc1N1C(=O)c2cc(S(N)(=O)=O)c(Cl)cc2NC1C (stereo not given) [Metolazone] | 0.19 °C |
| COc1cc(C)[nH]c(=O)c1CNC(=O)c1c(C)n([C@H](C)C2CCOCC2)c2ccccc12 | -0.0989 °C |
